Reference: patent US20080233097A1, “Phosphorylation Site Of Mitogen-Activated Protein Kinases, Modified Proteins And Applications” (UNIVERSIDAD AUTONOMA DE MADRID, priority 2005, published 2008)
No constants are given. Whether binding was seen depends on the method and setting. Binding seen in cells or lysates may run through a third protein. Some results given as binding are weak or reduced against the parent protein; the word gives no strength. One block for each substance: values may come before it.

Sequences of proteins named here, by UniProt entry; tags and fusion partners are left off. A change or cut given only in a name is not applied to a line headed by its entry.
UniProt P47811: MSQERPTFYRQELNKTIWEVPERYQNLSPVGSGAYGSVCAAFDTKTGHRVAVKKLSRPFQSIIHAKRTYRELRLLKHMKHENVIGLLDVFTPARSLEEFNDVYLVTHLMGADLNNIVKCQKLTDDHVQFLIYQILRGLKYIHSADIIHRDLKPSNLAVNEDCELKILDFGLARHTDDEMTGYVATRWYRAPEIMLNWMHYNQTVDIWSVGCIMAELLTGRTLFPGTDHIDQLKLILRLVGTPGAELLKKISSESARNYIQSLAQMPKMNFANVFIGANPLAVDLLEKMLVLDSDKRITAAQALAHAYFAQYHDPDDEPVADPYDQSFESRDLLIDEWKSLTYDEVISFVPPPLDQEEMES
UniProt P21146: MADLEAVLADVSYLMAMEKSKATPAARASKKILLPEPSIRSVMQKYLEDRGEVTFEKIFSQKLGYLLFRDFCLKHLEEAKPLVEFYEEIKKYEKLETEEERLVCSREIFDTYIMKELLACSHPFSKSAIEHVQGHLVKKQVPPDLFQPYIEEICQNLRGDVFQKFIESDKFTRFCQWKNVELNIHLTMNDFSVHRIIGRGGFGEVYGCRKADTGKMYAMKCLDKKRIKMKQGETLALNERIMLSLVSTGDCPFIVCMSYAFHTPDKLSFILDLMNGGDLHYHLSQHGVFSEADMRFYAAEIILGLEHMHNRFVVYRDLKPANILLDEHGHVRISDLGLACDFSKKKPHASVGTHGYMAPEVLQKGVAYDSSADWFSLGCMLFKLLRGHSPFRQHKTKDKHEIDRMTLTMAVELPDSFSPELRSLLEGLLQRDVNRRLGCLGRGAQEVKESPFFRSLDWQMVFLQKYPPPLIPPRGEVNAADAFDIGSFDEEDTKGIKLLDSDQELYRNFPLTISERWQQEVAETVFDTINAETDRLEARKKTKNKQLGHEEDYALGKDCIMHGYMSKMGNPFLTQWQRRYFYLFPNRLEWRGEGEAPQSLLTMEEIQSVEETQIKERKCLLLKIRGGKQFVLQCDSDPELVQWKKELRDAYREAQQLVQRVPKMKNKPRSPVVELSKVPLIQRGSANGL
UniProt P25098: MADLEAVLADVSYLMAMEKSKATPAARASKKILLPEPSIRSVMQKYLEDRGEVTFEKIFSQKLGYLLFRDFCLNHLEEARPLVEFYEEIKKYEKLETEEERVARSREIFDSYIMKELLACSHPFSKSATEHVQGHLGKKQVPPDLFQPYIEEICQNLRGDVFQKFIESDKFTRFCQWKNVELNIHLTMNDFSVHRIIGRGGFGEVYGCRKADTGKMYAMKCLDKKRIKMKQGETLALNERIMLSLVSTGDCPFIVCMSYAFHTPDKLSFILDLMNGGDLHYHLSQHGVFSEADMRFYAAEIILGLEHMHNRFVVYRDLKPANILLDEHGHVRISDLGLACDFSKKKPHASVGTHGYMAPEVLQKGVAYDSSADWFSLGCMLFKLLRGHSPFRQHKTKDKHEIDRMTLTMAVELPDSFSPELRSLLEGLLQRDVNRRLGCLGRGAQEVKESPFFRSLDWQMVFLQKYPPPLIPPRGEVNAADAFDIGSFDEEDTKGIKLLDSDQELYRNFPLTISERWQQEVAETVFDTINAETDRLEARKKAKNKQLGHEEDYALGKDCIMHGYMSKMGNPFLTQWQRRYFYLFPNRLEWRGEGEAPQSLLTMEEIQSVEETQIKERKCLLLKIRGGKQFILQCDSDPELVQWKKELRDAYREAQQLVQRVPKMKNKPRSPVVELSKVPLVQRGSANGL

Legend:
[1] = biological target: Flag-p38α (mouse, from pCDNA3-Flag-p38α, expressed in HEK 293 cells) (mouse) (UniProt P47811); test: reciprocal co-immunoprecipitation with anti-GRK2 antibodies, p38 detected in the immunoprecipitates
[2] = biological target: Flag-p38α (mouse, from pCDNA3-Flag-p38α, expressed in HEK 293 cells) (mouse) (UniProt P47811); test: co-immunoprecipitation from transfected HEK293 lysates with M2 anti-Flag agarose, Western blot with anti-PF2
[3] = biological target: Flag-p38α (mouse, from pCDNA3-Flag-p38α, expressed in HEK 293 cells) (mouse) (UniProt P47811); test: reciprocal co-immunoprecipitation with anti-PF2 (anti-GRK2), Western blot with anti-p38
[4] = biological target: Flag-p38α (mouse, from pCDNA3-Flag-p38α, expressed in HEK 293 cells) (mouse) (UniProt P47811); test: co-immunoprecipitation of endogenous GRK2 with Flag-p38α from HEK 293 cells
[5] = biological target: Flag-p38α (mouse, from pCDNA3-Flag-p38α, expressed in HEK 293 cells) (mouse) (UniProt P47811); test: co-immunoprecipitation of endogenous GRK2 with Flag-p38α from HEK 293 cells transfected with β2-AR and Flag-p38α only
[6] = biological target: Flag-p38α (mouse, from pCDNA3-Flag-p38α, expressed in HEK 293 cells) (mouse) (UniProt P47811); test: co-immunoprecipitation with M2 anti-Flag agarose from transfected HEK 293 cells, Western blot with anti-PF2

- binding [1]: binds
- binding [2]: binds
- binding [3]: binds
Substance: GRK2 (bovine, overexpressed from pCDNA3-GRK2 in HEK 293 cells) (from UniProt P21146 1-689) (enzyme)

- binding [4]: binds
- binding [5]: binds
Substance: endogenous GRK2 of HEK 293 cells (from UniProt P25098 1-689) (enzyme)

- binding [6]: binds
Substance: GRK2-K220R (catalytically inactive mutant of bovine GRK2, from pCDNA3-GRK2-K220R) (from UniProt P21146 1-689) (enzyme)
